According to doi:10.1101/2022.10.05.510992:
These are yes or no findings as the source states them, for the method shown. In cells and extracts the contact can be indirect. Some entries that bind do so weakly or less than the wild type. One block for each molecule: values may come before it.

Sequences of proteins named here, by UniProt entry; tags and fusion partners are left off.
UniProt Q62696: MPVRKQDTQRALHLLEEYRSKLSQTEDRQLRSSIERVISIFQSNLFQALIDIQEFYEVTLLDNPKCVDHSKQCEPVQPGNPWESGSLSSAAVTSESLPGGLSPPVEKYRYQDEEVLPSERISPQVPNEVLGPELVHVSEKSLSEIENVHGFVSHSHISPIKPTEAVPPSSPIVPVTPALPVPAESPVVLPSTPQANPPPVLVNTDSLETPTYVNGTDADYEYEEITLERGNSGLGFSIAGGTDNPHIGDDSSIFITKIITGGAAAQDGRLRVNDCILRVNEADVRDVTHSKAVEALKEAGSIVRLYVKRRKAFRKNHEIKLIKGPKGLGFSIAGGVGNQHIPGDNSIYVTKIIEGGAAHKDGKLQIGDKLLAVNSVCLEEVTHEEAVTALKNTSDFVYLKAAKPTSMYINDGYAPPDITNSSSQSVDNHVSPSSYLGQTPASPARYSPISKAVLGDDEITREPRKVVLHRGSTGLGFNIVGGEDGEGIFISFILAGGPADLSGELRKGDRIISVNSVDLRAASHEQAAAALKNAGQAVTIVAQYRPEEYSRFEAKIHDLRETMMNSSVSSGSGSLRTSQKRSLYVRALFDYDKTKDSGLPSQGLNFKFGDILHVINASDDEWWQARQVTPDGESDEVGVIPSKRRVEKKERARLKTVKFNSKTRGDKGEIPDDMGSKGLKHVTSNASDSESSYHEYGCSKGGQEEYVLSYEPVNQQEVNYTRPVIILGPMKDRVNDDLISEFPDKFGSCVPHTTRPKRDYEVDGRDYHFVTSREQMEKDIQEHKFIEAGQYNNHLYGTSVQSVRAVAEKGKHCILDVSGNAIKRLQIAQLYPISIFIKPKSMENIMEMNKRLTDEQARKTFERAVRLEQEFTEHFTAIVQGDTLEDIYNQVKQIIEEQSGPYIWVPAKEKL
UniProt P60953: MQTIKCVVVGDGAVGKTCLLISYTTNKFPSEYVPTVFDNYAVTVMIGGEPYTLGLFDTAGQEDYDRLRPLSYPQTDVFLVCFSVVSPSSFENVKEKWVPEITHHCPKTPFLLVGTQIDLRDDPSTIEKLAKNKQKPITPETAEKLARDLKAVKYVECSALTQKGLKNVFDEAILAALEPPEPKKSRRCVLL
UniProt Q15154: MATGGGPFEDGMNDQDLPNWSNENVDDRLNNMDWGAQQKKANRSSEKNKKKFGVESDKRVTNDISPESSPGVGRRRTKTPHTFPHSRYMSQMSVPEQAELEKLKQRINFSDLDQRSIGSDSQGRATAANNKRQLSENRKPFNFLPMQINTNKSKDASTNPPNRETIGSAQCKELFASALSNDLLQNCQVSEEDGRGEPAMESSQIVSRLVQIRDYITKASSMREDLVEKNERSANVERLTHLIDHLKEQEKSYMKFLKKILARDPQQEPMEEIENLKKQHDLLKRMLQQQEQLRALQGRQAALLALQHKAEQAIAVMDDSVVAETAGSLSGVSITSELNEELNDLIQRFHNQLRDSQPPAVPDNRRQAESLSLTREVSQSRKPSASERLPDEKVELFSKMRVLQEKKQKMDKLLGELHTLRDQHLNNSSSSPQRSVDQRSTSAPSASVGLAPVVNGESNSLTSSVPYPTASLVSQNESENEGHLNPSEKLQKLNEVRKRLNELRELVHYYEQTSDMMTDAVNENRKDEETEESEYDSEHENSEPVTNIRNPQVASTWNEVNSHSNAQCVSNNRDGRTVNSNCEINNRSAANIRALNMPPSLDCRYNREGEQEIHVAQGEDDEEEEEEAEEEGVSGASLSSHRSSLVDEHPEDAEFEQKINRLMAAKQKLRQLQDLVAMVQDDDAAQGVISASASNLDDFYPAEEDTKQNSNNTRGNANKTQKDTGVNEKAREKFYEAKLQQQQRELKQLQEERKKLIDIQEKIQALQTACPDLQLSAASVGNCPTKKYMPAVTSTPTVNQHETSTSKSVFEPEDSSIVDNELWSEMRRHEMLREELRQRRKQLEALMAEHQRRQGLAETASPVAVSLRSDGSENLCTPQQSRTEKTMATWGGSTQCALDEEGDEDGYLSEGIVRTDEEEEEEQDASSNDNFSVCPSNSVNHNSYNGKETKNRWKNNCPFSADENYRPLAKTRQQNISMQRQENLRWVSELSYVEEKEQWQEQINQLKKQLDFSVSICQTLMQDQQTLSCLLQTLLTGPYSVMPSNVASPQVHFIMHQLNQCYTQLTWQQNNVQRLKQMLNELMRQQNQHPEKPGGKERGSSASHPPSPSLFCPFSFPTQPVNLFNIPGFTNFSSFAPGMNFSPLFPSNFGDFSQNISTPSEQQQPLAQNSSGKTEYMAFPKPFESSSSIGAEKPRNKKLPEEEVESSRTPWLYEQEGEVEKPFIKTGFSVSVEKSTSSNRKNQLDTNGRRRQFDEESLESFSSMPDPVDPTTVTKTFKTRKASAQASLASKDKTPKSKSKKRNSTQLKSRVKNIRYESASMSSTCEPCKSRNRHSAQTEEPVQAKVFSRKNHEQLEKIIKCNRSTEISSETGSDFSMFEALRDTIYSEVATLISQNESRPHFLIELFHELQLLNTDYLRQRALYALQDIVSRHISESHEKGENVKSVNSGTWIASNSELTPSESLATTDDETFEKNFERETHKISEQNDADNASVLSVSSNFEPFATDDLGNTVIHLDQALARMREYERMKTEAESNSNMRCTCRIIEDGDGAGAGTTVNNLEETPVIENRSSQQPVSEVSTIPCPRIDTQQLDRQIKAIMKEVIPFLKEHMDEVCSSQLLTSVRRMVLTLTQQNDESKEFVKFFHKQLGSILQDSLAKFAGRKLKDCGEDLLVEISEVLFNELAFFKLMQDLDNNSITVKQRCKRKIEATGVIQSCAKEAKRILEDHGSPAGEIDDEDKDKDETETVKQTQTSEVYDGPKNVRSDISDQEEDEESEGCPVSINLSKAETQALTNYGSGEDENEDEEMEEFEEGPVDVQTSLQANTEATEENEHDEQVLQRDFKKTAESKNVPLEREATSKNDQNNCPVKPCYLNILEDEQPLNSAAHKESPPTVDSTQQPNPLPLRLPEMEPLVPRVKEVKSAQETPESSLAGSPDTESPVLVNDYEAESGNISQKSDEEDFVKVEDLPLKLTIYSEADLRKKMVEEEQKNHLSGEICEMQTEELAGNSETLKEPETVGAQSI
UniProt Q3SXY8: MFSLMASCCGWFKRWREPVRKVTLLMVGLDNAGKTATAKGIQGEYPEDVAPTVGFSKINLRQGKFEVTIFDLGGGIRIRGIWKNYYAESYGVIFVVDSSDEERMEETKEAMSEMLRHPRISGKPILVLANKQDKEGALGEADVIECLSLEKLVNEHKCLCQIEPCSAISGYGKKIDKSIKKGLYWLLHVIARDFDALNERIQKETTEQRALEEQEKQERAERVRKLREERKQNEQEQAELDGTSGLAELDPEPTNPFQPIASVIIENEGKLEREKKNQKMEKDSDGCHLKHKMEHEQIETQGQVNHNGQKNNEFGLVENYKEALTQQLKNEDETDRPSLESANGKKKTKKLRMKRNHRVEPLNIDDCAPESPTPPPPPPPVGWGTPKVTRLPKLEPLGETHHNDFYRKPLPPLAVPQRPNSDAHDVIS

What was measured:
[1] = target: T1, Sodium-bicarbonate co-transporter NBCn1 (SLC4A7), native in human cells (human (endogenous in MCF-7 and HEK293T)) (UniProt Q9Y6M7); test: proximity ligation
T1 sequence: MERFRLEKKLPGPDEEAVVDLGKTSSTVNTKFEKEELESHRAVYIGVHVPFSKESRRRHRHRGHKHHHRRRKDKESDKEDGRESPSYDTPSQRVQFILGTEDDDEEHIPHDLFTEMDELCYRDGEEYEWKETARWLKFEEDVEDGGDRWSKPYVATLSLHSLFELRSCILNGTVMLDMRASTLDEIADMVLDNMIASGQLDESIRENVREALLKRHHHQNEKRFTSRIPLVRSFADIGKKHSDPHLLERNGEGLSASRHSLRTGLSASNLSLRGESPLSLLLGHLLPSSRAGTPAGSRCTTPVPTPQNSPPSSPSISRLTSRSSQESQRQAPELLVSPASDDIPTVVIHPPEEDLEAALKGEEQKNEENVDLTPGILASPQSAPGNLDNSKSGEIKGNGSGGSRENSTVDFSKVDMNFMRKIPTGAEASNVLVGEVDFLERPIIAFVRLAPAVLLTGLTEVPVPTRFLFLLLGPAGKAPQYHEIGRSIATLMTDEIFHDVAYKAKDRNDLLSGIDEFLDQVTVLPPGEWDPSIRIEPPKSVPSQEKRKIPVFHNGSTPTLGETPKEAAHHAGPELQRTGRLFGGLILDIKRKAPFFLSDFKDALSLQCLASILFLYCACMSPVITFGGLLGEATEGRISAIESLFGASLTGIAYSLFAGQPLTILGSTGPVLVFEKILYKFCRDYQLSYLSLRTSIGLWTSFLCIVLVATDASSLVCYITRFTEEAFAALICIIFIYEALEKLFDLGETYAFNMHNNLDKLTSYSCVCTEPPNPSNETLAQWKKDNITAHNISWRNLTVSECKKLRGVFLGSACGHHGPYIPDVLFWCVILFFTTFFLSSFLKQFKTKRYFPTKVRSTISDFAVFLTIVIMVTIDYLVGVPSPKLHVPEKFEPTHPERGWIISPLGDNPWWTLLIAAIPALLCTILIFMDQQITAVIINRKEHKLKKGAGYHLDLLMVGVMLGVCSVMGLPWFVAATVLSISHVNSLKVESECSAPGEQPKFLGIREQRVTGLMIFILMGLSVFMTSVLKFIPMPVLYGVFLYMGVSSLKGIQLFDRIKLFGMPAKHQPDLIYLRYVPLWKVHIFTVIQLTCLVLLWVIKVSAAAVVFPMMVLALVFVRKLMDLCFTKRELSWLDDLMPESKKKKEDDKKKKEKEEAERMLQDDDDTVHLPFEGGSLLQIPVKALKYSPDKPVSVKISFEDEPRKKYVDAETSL

[2] = target: T1, Sodium-bicarbonate co-transporter NBCn1 (SLC4A7), native in human cells (human (endogenous in MCF-7 and HEK293T)); test: co-IP
[3] = target: DLG1-GFP (UniProt Q62696); test: co-IP
[4] = target: T2, NBCn1 (co-IP with IFT27, cells not shown) (UniProt Q9Y6M7); test: co-IP
T2 sequence: T1 sequence

Molecule: Cdc42, native in MCF-7 cells (from UniProt P60953 1-191)
binding [1]: binds

Molecule: Pericentriolar material-1 (PCM1), native in MCF-7 cells (from UniProt Q15154 1-2024)
binding [2]: binds

Second part, the molecule after the results:

binding [2]: binds
Molecule: Arl13B, native in MCF-7 cells (from UniProt Q3SXY8 1-428)

binding [3]: binds
B1: Sodium-bicarbonate co-transporter NBCn1 (SLC4A7), native in human cells (protein, UniProt Q9Y6M7 1-1214)
chain: T1 sequence

binding [4]: binds
B2: IFT27 (co-IP with NBCn1, cells not shown) (protein, UniProt Q9BW83 1-186)
chain: MVKLAAKCILAGDPAVGKTALAQIFRSDGAHFQKSYTLTTGMDLVVKTVPVPDTGDSVELFIFDSAGKELFSEMLDKLWESPNVLCLVYDVTNEESFNNCSKWLEKARSQAPGISLPGVLVGNKTDLAGRRAVDSAEARAWALGQGLECFETSVKEMENFEAPFHCLAKQFHQLYREKVEVFRALA
